Results deposited as PubChem BioAssay AID1259308 (NCATS, 2017)
Test: 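Candidate targets for better recombinant protein yield in mammalian cells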 (primary screen). System: human HEK293 embryonic kidney cells stably expressing firefly luciferase (HEK-CMV-Luc2-Hygro). Knock-down reagent: single siRNA against human genes, 0.8 pmol siRNA per well. Timing: 72 h. Read-out: 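Reporter luminescence and viable-cell signal on separate replicate plates, given as percent of non-targeting control and median/MAD z-scores, plus per-cell luciferase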. Reading the numbers: total luciferase, z-score and total luciferase, % of control: higher = more reporter protein produced; luciferase per cell, z-score: higher = more reporter output per viable cell; viable cells, % of control: higher = more viable cells. Active means: 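An siRNA counts as active if its total luciferase robust z-score exceeds 3; genes with two or more such siRNAs out of three were retested with fresh siRNAs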. Meaning of the calls: active = raised luciferase; inactive = no rise.
The whole screen tested about 59,000 reagents; this is an unselected part. In the full data, about 1,510 (2.6%) were called active. 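Calls use total luciferase alone and ignore viability, so some active siRNAs may act by altering cell number.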

gene,PubChem SID,"total luciferase, z-score","total luciferase, % of control","luciferase per cell, z-score","viable cells, % of control",outcome
SEPHS2 (GeneID 22928),SID160733690,-1.75,47.1,-1.45,77.1,inactive
SEPHS2 (GeneID 22928),SID160733701,0.407,90,0.224,94.8,inactive
SEPHS2 (GeneID 22928),SID160733711,0.747,96.7,0.374,98,inactive
MIR9-3HG (GeneID 254559),SID160732809,-1.93,43.4,-2.88,104,inactive
MIR9-3HG (GeneID 254559),SID160762213,0.326,88.4,-0.536,114,inactive
MIR9-3HG (GeneID 254559),SID160762214,-1.59,50.2,-0.734,68.1,inactive
CAMTA1 (GeneID 23261),SID160735861,0.589,93.6,0.307,96.5,inactive
CAMTA1 (GeneID 23261),SID160735863,-0.125,79.4,-1.1,119,inactive
CAMTA1 (GeneID 23261),SID160735864,-0.483,72.3,-0.553,93.4,inactive
KAZN (GeneID 23254),SID160732749,-1.62,49.7,-1.46,81.6,inactive
KAZN (GeneID 23254),SID160733296,2.23,126,1.83,87,inactive
KAZN (GeneID 23254),SID160735846,-1.85,45.1,-0.737,61.2,inactive
KAZN (GeneID 23254),SID160735847,-0.785,66.3,-1.13,99.7,inactive
KAZN (GeneID 23254),SID160766819,1.19,105,0.599,101,inactive
KAZN (GeneID 23254),SID160766820,-1.57,50.7,-1.44,82.7,inactive
TMPPE (GeneID 643853),SID160769019,-0.0926,80,0.281,83.1,inactive
TMPPE (GeneID 643853),SID160769020,-1.27,56.7,0.603,54,inactive
TMPPE (GeneID 643853),SID160769022,1.75,117,2.12,74.6,inactive
SRC (GeneID 6714),SID160717314,0.73,96.4,0.656,90.6,inactive
SRC (GeneID 6714),SID160717315,-1.5,52,-1.11,77.9,inactive
SRC (GeneID 6714),SID160717316,2.17,125,1.94,83.8,inactive
GSTK1 (GeneID 373156),SID160765233,0.457,91,1.51,68.3,inactive
GSTK1 (GeneID 373156),SID160765234,-0.2,77.9,-0.389,96.5,inactive
GSTK1 (GeneID 373156),SID160765235,-0.132,79.3,0.14,85.4,inactive
PPARD (GeneID 5467),SID160714706,-2.14,39.2,-3.25,103,inactive
PPARD (GeneID 5467),SID160714707,-0.917,63.6,-1.2,97.7,inactive
PPARD (GeneID 5467),SID160714708,0.183,85.5,-0.819,119,inactive
OTX1 (GeneID 5013),SID160778462,-0.643,69.1,-0.779,94.8,inactive
OTX1 (GeneID 5013),SID160778463,1.2,106,2.52,60.9,inactive
OTX1 (GeneID 5013),SID160778465,-0.804,65.9,-1.02,96.3,inactive
RALGPS2-AS1 (GeneID 646976),SID160770080,-0.128,79.3,0.107,86.2,inactive
RALGPS2-AS1 (GeneID 646976),SID160770083,1.47,111,1.92,74.9,inactive
RALGPS2-AS1 (GeneID 646976),SID160770084,-0.391,74.1,-0.707,99.8,inactive
HNRNPA1P8 (GeneID 402562),SID160767455,1.55,113,1.66,81.5,inactive
HNRNPA1P8 (GeneID 402562),SID160767456,1.18,105,1.26,84.5,inactive
HNRNPA1P8 (GeneID 402562),SID160767457,-0.386,74.2,-0.884,105,inactive
IQCB1 (GeneID 9657),SID160722733,1.54,113,0.981,97.1,inactive
IQCB1 (GeneID 9657),SID160722734,0.619,94.2,1.62,68.7,inactive
IQCB1 (GeneID 9657),SID160722735,-0.444,73.1,-0.432,91.5,inactive
HENMT1 (GeneID 113802),SID160754876,-0.918,63.6,-1.33,101,inactive
HENMT1 (GeneID 113802),SID160754877,0.371,89.3,-0.0222,100,inactive
HENMT1 (GeneID 113802),SID160754878,-2.23,37.5,-1.58,63.5,inactive
IFT54 (GeneID 26146),SID160737691,2.06,123,1.25,98.7,inactive
IFT54 (GeneID 26146),SID160737692,-1.09,60.2,-1.01,87.8,inactive
IFT54 (GeneID 26146),SID160737693,-0.327,75.4,-0.627,99.4,inactive
ST6GALNAC2 (GeneID 10610),SID160728849,-0.216,77.6,0.643,73.2,inactive
ST6GALNAC2 (GeneID 10610),SID160728850,0.00182,81.9,0.0579,90.2,inactive
ST6GALNAC2 (GeneID 10610),SID160730460,-1.46,52.8,-1.25,82.1,inactive
MRAP2 (GeneID 112609),SID160732324,0.297,87.8,1.1,73.5,inactive
MRAP2 (GeneID 112609),SID160754710,0.086,83.6,0.151,89.8,inactive
MRAP2 (GeneID 112609),SID160754711,0.101,83.9,-0.388,104,inactive
SLX4IP (GeneID 128710),SID160756795,-2.08,40.5,-1.98,76.2,inactive
SLX4IP (GeneID 128710),SID160756796,0.582,93.5,0.657,87.8,inactive
SLX4IP (GeneID 128710),SID160756797,0.00449,82,0.813,74,inactive
CEACAM1 (GeneID 634),SID160726095,-0.385,74.2,-0.6,97.2,inactive
CEACAM1 (GeneID 634),SID160726166,0.575,93.3,1.32,73.6,inactive
CEACAM1 (GeneID 634),SID160726226,-0.11,79.7,1.24,64.2,inactive

8 entries from above, set out differently.
{"gene": "SEPHS2 (GeneID 22928)", "PubChem SID": "SID160733711", "total luciferase, z-score": 0.747, "total luciferase, % of control": 96.7, "luciferase per cell, z-score": 0.374, "viable cells, % of control": 98, "outcome": "inactive"}
{"gene": "MIR9-3HG (GeneID 254559)", "PubChem SID": "SID160732809", "total luciferase, z-score": -1.93, "total luciferase, % of control": 43.4, "luciferase per cell, z-score": -2.88, "viable cells, % of control": 104, "outcome": "inactive"}
{"gene": "MIR9-3HG (GeneID 254559)", "PubChem SID": "SID160762213", "total luciferase, z-score": 0.326, "total luciferase, % of control": 88.4, "luciferase per cell, z-score": -0.536, "viable cells, % of control": 114, "outcome": "inactive"}
{"gene": "MIR9-3HG (GeneID 254559)", "PubChem SID": "SID160762214", "total luciferase, z-score": -1.59, "total luciferase, % of control": 50.2, "luciferase per cell, z-score": -0.734, "viable cells, % of control": 68.1, "outcome": "inactive"}
{"gene": "CAMTA1 (GeneID 23261)", "PubChem SID": "SID160735861", "total luciferase, z-score": 0.589, "total luciferase, % of control": 93.6, "luciferase per cell, z-score": 0.307, "viable cells, % of control": 96.5, "outcome": "inactive"}
{"gene": "CAMTA1 (GeneID 23261)", "PubChem SID": "SID160735863", "total luciferase, z-score": -0.125, "total luciferase, % of control": 79.4, "luciferase per cell, z-score": -1.1, "viable cells, % of control": 119, "outcome": "inactive"}
{"gene": "CAMTA1 (GeneID 23261)", "PubChem SID": "SID160735864", "total luciferase, z-score": -0.483, "total luciferase, % of control": 72.3, "luciferase per cell, z-score": -0.553, "viable cells, % of control": 93.4, "outcome": "inactive"}
{"gene": "KAZN (GeneID 23254)", "PubChem SID": "SID160732749", "total luciferase, z-score": -1.62, "total luciferase, % of control": 49.7, "luciferase per cell, z-score": -1.46, "viable cells, % of control": 81.6, "outcome": "inactive"}
